Taken from: PubChem BioAssay AID504808 (Drosophila RNAi Screening Center, 2011)
Purpose: 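Chromatin factors that keep E2F targets switched off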 (primary screen). System: Drosophila S2 cells. Knock-down reagent: long dsRNA against Drosophila genes. Read-out: 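Firefly luciferase driven by E2F sites, normalised to Renilla luciferase on the same minimal promoter, measured by plate reader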. Scale: E2F firefly: higher = more E2F reporter activity; Renilla normaliser: higher = more normaliser reporter signal. Active means: 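Called active if the normalised E2F reporter went up by over 50%; the cutoff is arbitrary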.
The deposit covers about 21,000 reagents; this is a random part of those with a known target gene and a result. In the full data, 18 (0.084%) are marked active. 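Raw counts without plate normalisation, one of two replicates; the ratio scores behind the calls were not deposited.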 The numbers tell different reagents against one gene apart. Names joined by + are all predicted targets of the reagent. The record does not give: the amount of reagent, the time to read-out.

The opening 4 records, ahead of the listing:
gene knocked down	dsRNA no.	E2F firefly, rep 1	Renilla normaliser, rep 1	Outcome
CG42249	1	1.12e5	5642	inactive
CG42249	2	35873	2851	inactive
CG5961	1	77239	3724	inactive
ana1 (anastral spindle 1)	1	68374	4032	inactive

Results, from the first entry:
gene knocked down	dsRNA no.	E2F firefly, rep 1	Renilla normaliser, rep 1	Outcome
CG42249	1	1.12e5	5642	inactive
CG42249	2	35873	2851	inactive
CG5961	1	77239	3724	inactive
ana1 (anastral spindle 1)	1	68374	4032	inactive
CG6236	1	70746	3669	inactive
CG14974	1	1.04e5	3666	inactive
CngA (Cyclic nucleotide-gated ion channel subunit A)	1	1.28e5	5255	inactive
CngA (Cyclic nucleotide-gated ion channel subunit A)	2	1.36e5	5020	inactive
CSN6 (COP9 signalosome subunit 6)	1	82934	5371	inactive
CG9072	1	2.15e5	5772	inactive
CG14937	1	1.38e5	4010	inactive
CG18628	1	77992	3491	inactive
ebd2 (earthbound 2)	1	1.41e5	5253	inactive
pigs (pickled eggs)	1	77603	2213	inactive
pigs (pickled eggs)	2	63927	4742	inactive
pigs (pickled eggs)	3	64721	5058	inactive
Orco (Odorant receptor co-receptor)	1	1.36e5	6024	inactive
Rab10	1	1.37e5	6312	inactive
CG7523	1	66331	3452	inactive
Cpr65Ea (Cuticular protein 65Ea)	1	85426	3538	inactive
miple2 (midkine and pleiotrophin 2)	1	92524	4434	inactive
Edc3 (Enhancer of decapping 3)	1	66870	3945	inactive
CG32214	1	90846	3666	inactive
CG18809	1	1.44e5	6262	inactive
CG8159	1	1.38e5	6685	inactive
CG7745	1	2947	183	inactive
Dscam1 (Down syndrome cell adhesion molecule 1)	1	1.34e5	6175	inactive
Dscam1 (Down syndrome cell adhesion molecule 1)	2	1.44e5	6237	inactive
Dscam1 (Down syndrome cell adhesion molecule 1)	3	1.23e5	4691	inactive
sut3 (sugar transporter 3)	1	1.61e5	5628	inactive
CG13895	1	1.17e5	4943	inactive
eEF1gamma (eukaryotic translation elongation factor 1 gamma)	1	76533	6718	inactive
qjt (quijote)	1	1.73e5	8527	inactive
mas (masquerade)	1	54187	3055	inactive
CG1951	1	1793	968	inactive
CG8389	1	76058	3397	inactive
spt4	1	3173	207	inactive
jbug (jitterbug)	1	1.26e5	4935	inactive
jbug (jitterbug)	2	79413	3503	inactive
jbug (jitterbug)	3	93452	4025	inactive
jbug (jitterbug)	4	1.18e5	4698	inactive
mfr (misfire)	1	98024	4213	inactive
Elal (Elastin-like)	1	73367	5003	inactive
Kul (Kuzbanian-like)	1	1.13e5	6625	inactive
vimar (visceral mesodermal armadillo-repeats)	1	80335	4076	inactive
Cyp6a20 (Cytochrome P450 6a20)	1	150	35	inactive
TBPH (TAR DNA-binding protein-43 homolog)	1	85946	3990	inactive
CG31740	1	1.38e5	6247	inactive
Rnf146 (Ring finger protein 146)	1	1.43e5	7150	inactive
Brca2 (BRCA2, DNA repair associated)	1	99932	4470	inactive
Brca2 (BRCA2, DNA repair associated)	2	1.23e5	5138	inactive
CG8204	1	84945	3972	inactive
sprt (sprite)	1	2912	202	inactive
TwdlB (TweedleB)	1	1.09e5	5746	inactive
CG12935 + Nop10	1	1.33e5	5183	inactive
IP3K1 (Inositol 1,4,5-triphosphate kinase 1)	1	89867	3717	inactive
CG32537	1	1.74e5	5803	inactive
CG11892	1	1824	1004	inactive
alka (alkaliphile)	1	1.47e5	5073	inactive
Plp (Pericentrin-like protein)	1	1.79e5	9402	inactive
Plp (Pericentrin-like protein)	2	1.58e5	7960	inactive
Plp (Pericentrin-like protein)	3	72672	3901	inactive
CG7227	1	88554	3246	inactive
bbx + waw	1	1.52e5	5335	inactive
bbx + waw	2	1.38e5	6933	inactive
twf (twinfilin)	1	88995	4196	inactive
CG10663	1	1.12e5	5643	inactive
Xport-A + Xport-B	1	67661	2964	inactive
CCT1 (Chaperonin containing TCP1 subunit 1)	1	1.07e5	7088	inactive
CG34229	1	96126	4261	inactive
CG42304 + Snup	1	88944	3524	inactive
CG42304 + Snup	2	97400	3742	inactive
CG17404	1	1.49e5	6899	inactive
TfIIEalpha (Transcription factor IIEalpha)	1	76043	3105	inactive
CG3842	1	1.07e5	5141	inactive
CG18530	1	1.50e5	7565	inactive
pcm (pacman)	1	1.54e5	7167	inactive
Saysd1 (SAYSVFN motif domain containing 1)	1	1.13e5	6543	inactive
CG10914	1	1.62e5	5569	inactive
CG7065	1	8302	848	inactive
Acf (ATP-dependent chromatin assembly factor large subunit)	1	2393	916	inactive
CG3502	1	79241	3620	inactive
Nab2 (Nuclear polyadenosine RNA-binding 2)	1	86250	5647	inactive
Vav (Vav guanine nucleotide exchange factor)	1	1.17e5	5724	inactive
